From paper PMC2989915
Construct, isoform or probe ends are uncertain for at least one entry. Results from cells or extracts need not show a direct contact.

Sequences of proteins named here, by UniProt entry; tags and fusion partners are left off. A change or cut given only in a name is not applied to a line headed by its entry.
UniProt P42225: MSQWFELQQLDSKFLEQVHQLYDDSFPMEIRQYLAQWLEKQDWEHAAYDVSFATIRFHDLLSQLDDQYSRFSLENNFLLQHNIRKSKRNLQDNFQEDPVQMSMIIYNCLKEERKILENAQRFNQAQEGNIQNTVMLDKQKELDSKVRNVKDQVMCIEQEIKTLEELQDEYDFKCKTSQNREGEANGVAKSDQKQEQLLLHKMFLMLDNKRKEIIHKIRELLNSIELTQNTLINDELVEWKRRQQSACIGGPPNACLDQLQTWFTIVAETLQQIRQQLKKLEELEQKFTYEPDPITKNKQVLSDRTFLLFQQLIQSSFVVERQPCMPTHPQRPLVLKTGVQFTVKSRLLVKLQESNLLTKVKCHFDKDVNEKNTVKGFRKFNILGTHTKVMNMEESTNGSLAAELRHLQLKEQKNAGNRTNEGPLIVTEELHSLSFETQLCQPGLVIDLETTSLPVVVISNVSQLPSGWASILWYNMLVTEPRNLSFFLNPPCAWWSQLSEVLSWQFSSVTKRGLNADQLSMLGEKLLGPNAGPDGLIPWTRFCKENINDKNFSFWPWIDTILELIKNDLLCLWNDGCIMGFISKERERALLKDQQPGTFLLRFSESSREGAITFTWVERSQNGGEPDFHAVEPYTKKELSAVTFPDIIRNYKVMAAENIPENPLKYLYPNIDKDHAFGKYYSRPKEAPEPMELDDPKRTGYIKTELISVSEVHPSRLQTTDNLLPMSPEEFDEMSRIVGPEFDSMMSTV

Molecular target: pSTAT1 (phosphorylated STAT1, IFN-γ-activated) (UniProt P42225)
Test: EMSA with anti-pSTAT1 mAb
Conditions: IFN-γ-treated 5KC nuclear extract; 10 mM Tris-HCl pH 7.5, 1 mM MgCl2, 0.5 mM EDTA, 0.5 mM DTT, 50 mM NaCl, 4% glycerol, 0.05 mg/ml poly(dI-dC), 20 µg nuclear extract, 20 min at room temperature; protein in an extract

TAAAGACTTCCCAGAATTCCAA (double strand) [survivin promoter GAS probe]
binding result: binds
